Measured values reported in PMC10237670.

Protein sequences, listed by entry. Tags and fused reporters are not part of them. Residues count along the entry.
UniProt P54132, 636-1298 K869A/K870A: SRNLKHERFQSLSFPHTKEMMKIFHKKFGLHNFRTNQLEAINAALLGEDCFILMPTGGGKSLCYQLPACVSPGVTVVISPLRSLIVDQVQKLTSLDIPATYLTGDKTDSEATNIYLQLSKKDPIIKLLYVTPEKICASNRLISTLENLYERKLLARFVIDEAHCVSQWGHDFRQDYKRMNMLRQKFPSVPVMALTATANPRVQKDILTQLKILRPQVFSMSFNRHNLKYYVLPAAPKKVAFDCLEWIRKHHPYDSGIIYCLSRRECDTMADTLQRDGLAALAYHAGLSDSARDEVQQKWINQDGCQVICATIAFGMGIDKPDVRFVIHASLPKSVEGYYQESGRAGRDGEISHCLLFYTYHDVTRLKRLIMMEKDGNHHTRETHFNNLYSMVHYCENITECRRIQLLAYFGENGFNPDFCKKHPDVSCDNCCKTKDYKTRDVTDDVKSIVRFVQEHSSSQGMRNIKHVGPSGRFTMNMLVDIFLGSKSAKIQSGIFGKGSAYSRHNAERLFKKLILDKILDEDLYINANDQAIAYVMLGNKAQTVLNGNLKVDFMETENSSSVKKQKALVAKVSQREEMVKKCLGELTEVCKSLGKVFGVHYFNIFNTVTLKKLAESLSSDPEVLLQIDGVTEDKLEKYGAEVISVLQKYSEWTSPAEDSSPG

Target: BLMcore K869A K870A (Homo sapiens) (UniProt P54132)
Assay: EMSA
Details: 5 mM MgCl2, smear, no distinct shift (text: weakened binding), estimated apparent KD; 50 mM Tris-HCl pH 7.5, 50 mM KCl, 5 mM MgCl2, 1 mM DTT, 0.1 mg/mL BSA, 40 nM DNA, 30 min room temperature; 5% gel in TBE + 100 mM KCl at 4 C; recombinant protein; residues 636-1298; label: 3'-FAM on oAV320 (strand 2)

For “TGGCGACGGCAGCGAGGCTTAGGGTTAGCGTTAGCGTTAGGGTTTTTTTTTTTTTTT / GCCTCGCTGCCGTCGCCA [partial dsDNA with 3' ssDNA overhang (oRC32/FAM-oAV320)]”, the Kd was 62.5 nM.

Construct, isoform or probe ends are uncertain for at least one entry.
